The full ranking holds about 1,900 compounds; the median of “excess over highest single agent (ExcessHSA) synergy score, 6x6 matrix” is about -83, and the lowest 2% start at about -370. The list shows a part of the results.
system: NCI-H446; assay: excess over highest single agent (ExcessHSA) synergy score, 6x6 matrix; higher = less synergy (more negative = stronger synergy); conditions: 72 h; CellTiter-Glo viability

Compound	excess over highest single agent
O=C(CCCCCCC(=O)Nc1cccnc1)NO + Cc1sc2c(c1C)C(c1ccc(Cl)cc1)=N[C@@H](CC(=O)OC(C)(C)C)c1nnc(C)n1-2 [NCGC00250412-19]	-276
CC[C@@H]1/C=C/C=C/C[C@H](C)[C@H](O)[C@](C)(O)C(=O)[C@H](C)[C@@H](O)[C@H](C)C(=O)[C@H](C)[C@@H](O)[C@H](C)/C=C/C(=O)O[C@H]2[C@@H](C)[C@@H](CC1)O[C@@]1(CC[C@@H](C)[C@@H](C[C@H](C)O)O1)[C@@H]2C + Cc1sc2c(c1C)C(c1ccc(Cl)cc1)=N[C@@H](CC(=O)OC(C)(C)C)c1nnc(C)n1-2 [NCGC00250412-19]	-216
CO[C@H]1/C=C/O[C@@]2(C)Oc3c(C)c(O)c4c(O)c(c(/C=N/N5CCN(C)CC5)c(O)c4c3C2=O)NC(=O)/C(C)=C\C=C\[C@H](C)[C@H](O)[C@@H](C)[C@@H](O)[C@@H](C)[C@H](OC(C)=O)[C@@H]1C + Cc1sc2c(c1C)C(c1ccc(Cl)cc1)=N[C@@H](CC(=O)OC(C)(C)C)c1nnc(C)n1-2 [NCGC00250412-19]	-65.6
COc1cc(F)c(C(C)C)cc1-c1ccc(C(F)(F)F)cc1CN1C(=O)O[C@H](c2cc(C(F)(F)F)cc(C(F)(F)F)c2)[C@@H]1C + Cc1sc2c(c1C)C(c1ccc(Cl)cc1)=N[C@@H](CC(=O)OC(C)(C)C)c1nnc(C)n1-2 [NCGC00250412-19]	-89.5
CC(Oc1ccc(O)cc1)(P(=O)(O)O)P(=O)(O)O + Cc1sc2c(c1C)C(c1ccc(Cl)cc1)=N[C@@H](CC(=O)OC(C)(C)C)c1nnc(C)n1-2 [NCGC00250412-19]	-65.1
COc1cc(C(C)C)c(Oc2cnc(NC(CO)CO)nc2N)cc1I + Cc1sc2c(c1C)C(c1ccc(Cl)cc1)=N[C@@H](CC(=O)OC(C)(C)C)c1nnc(C)n1-2 [NCGC00250412-19]	-119
O=C1NC(=O)/C(=C/c2ccc3nccc(-c4ccncc4)c3c2)S1 + Cc1sc2c(c1C)C(c1ccc(Cl)cc1)=N[C@@H](CC(=O)OC(C)(C)C)c1nnc(C)n1-2 [NCGC00250412-19]	-177
O=C1NC(=O)C(c2ccccc2[N+](=O)[O-])=C1Nc1ccc(O)c(Cl)c1 + Cc1sc2c(c1C)C(c1ccc(Cl)cc1)=N[C@@H](CC(=O)OC(C)(C)C)c1nnc(C)n1-2 [NCGC00250412-19]	138
Oc1ccc(C2CNCCc3c2cc(O)c(O)c3Cl)cc1 (stereo not given) + Cc1sc2c(c1C)C(c1ccc(Cl)cc1)=N[C@@H](CC(=O)OC(C)(C)C)c1nnc(C)n1-2 [NCGC00250412-19]	-348
Cc1cc(Nc2cc(NC(=O)c3c(Cl)cccc3Cl)ccn2)nc(N)n1 + Cc1sc2c(c1C)C(c1ccc(Cl)cc1)=N[C@@H](CC(=O)OC(C)(C)C)c1nnc(C)n1-2 [NCGC00250412-19]	-114
COCCOc1nc(-c2ccc(Cl)c(Cl)c2)n(-c2ccc(NC(=O)CCl)cc2)n1 + Cc1sc2c(c1C)C(c1ccc(Cl)cc1)=N[C@@H](CC(=O)OC(C)(C)C)c1nnc(C)n1-2 [NCGC00250412-19]	-201
CCOC(=O)N1CCN(/[N+]([O-])=N/Oc2cc(O/N=[N+](\[O-])N3CCN(C(=O)OCC)CC3)c([N+](=O)[O-])cc2[N+](=O)[O-])CC1 + Cc1sc2c(c1C)C(c1ccc(Cl)cc1)=N[C@@H](CC(=O)OC(C)(C)C)c1nnc(C)n1-2 [NCGC00250412-19]	-102
CN1C(=O)COc2c(C(=O)NC3CN4CCC3CC4)cc(Cl)cc21 (stereo not given) + Cc1sc2c(c1C)C(c1ccc(Cl)cc1)=N[C@@H](CC(=O)OC(C)(C)C)c1nnc(C)n1-2 [NCGC00250412-19]	-81.7
OC[C@@H](O)[C@@H](O)[C@H](O)[C@H](O)CO + Cc1sc2c(c1C)C(c1ccc(Cl)cc1)=N[C@@H](CC(=O)OC(C)(C)C)c1nnc(C)n1-2 [NCGC00250412-19]	-202
O=C(Oc1ccc([N+](=O)[O-])cc1)N1CCC(C(O)(c2ccc3c(c2)OCO3)c2ccc3c(c2)OCO3)CC1 + Cc1sc2c(c1C)C(c1ccc(Cl)cc1)=N[C@@H](CC(=O)OC(C)(C)C)c1nnc(C)n1-2 [NCGC00250412-19]	-72.8
C[C@H](NCc1ccc(OCc2cccc(F)c2)cc1)C(N)=O + Cc1sc2c(c1C)C(c1ccc(Cl)cc1)=N[C@@H](CC(=O)OC(C)(C)C)c1nnc(C)n1-2 [NCGC00250412-19]	8.99
CCn1cc(C(=O)O)c(=O)c2cc(F)c(N3CCNCC3)nc21 + Cc1sc2c(c1C)C(c1ccc(Cl)cc1)=N[C@@H](CC(=O)OC(C)(C)C)c1nnc(C)n1-2 [NCGC00250412-19]	92.6
CC=C1C2C=C(C)CC1(N)c1ccc(=O)[nH]c1C2 (stereo not given) + Cc1sc2c(c1C)C(c1ccc(Cl)cc1)=N[C@@H](CC(=O)OC(C)(C)C)c1nnc(C)n1-2 [NCGC00250412-19]	-16.9

Compound	excess over highest single agent
C=C(C)[C@@H]1CC[C@]2(C(=O)O)CC[C@]3(C)[C@H](CC[C@@H]4[C@@]5(C)CC[C@H](O)C(C)(C)[C@@H]5CC[C@]43C)[C@@H]12 + Cc1sc2c(c1C)C(c1ccc(Cl)cc1)=N[C@@H](CC(=O)OC(C)(C)C)c1nnc(C)n1-2 [NCGC00250412-19]	56
CCCCCN(C)CCC(O)(P(=O)(O)O)P(=O)(O)O + Cc1sc2c(c1C)C(c1ccc(Cl)cc1)=N[C@@H](CC(=O)OC(C)(C)C)c1nnc(C)n1-2 [NCGC00250412-19]	-38.2
O=C(O)C1=C[C@@H](O)[C@@H](O)[C@H](O)C1 + Cc1sc2c(c1C)C(c1ccc(Cl)cc1)=N[C@@H](CC(=O)OC(C)(C)C)c1nnc(C)n1-2 [NCGC00250412-19]	100
CC(C)OC(=O)C(C(=O)OC(C)C)=C1SC=CS1 + Cc1sc2c(c1C)C(c1ccc(Cl)cc1)=N[C@@H](CC(=O)OC(C)(C)C)c1nnc(C)n1-2 [NCGC00250412-19]	-54.8
Cc1c(C)n(Cc2ccc(-c3ccccc3C(=O)O)cc2)c2ccc(C(=O)N[C@@H](C)c3ccc([N+](=O)[O-])cc3)cc12 + Cc1sc2c(c1C)C(c1ccc(Cl)cc1)=N[C@@H](CC(=O)OC(C)(C)C)c1nnc(C)n1-2 [NCGC00250412-19]	224
CC[C@]12C=CCN3CC[C@@]4(c5cc([C@@]6(C(=O)OC)C[C@@H]7C[C@@H](C(C)(F)F)CN(Cc8c6[nH]c6ccccc86)C7)c(OC)cc5N(C)[C@H]4[C@@](O)(C(=O)OC)[C@@H]1OC(C)=O)[C@@H]32 + Cc1sc2c(c1C)C(c1ccc(Cl)cc1)=N[C@@H](CC(=O)OC(C)(C)C)c1nnc(C)n1-2 [NCGC00250412-19]	-187
CNC(=O)c1c(-c2ccc(F)cc2)oc2cc(N(CCO)S(C)(=O)=O)c(C3CC3)cc12 + Cc1sc2c(c1C)C(c1ccc(Cl)cc1)=N[C@@H](CC(=O)OC(C)(C)C)c1nnc(C)n1-2 [NCGC00250412-19]	-113
CCNC(=O)[C@H]1O[C@@H](n2cnc3c(N)nc(NCCc4ccc(CCC(=O)O)cc4)nc32)[C@H](O)[C@@H]1O + Cc1sc2c(c1C)C(c1ccc(Cl)cc1)=N[C@@H](CC(=O)OC(C)(C)C)c1nnc(C)n1-2 [NCGC00250412-19]	-52.9
CCN(CC)CCCC(C)Nc1ccnc2cc(Cl)ccc12 (stereo not given) + Cc1sc2c(c1C)C(c1ccc(Cl)cc1)=N[C@@H](CC(=O)OC(C)(C)C)c1nnc(C)n1-2 [NCGC00250412-19]	-115
O=C1CCC[C@@H]2[C@H]3CCCN4CCC[C@@H](CN12)[C@@H]34 + Cc1sc2c(c1C)C(c1ccc(Cl)cc1)=N[C@@H](CC(=O)OC(C)(C)C)c1nnc(C)n1-2 [NCGC00250412-19]	-63.2
COc1cc2c(Oc3ccc(-c4cnc(Nc5ccc(F)cc5)n(C)c4=O)cc3F)ccnc2cc1OCCCN1CCOCC1 + Cc1sc2c(c1C)C(c1ccc(Cl)cc1)=N[C@@H](CC(=O)OC(C)(C)C)c1nnc(C)n1-2 [NCGC00250412-19]	-230
OC[C@H]1O[C@@H](O[C@@H]2[C@@H](CO)O[C@](O)(CO)[C@H]2O)[C@H](O)[C@@H](O)[C@H]1O + Cc1sc2c(c1C)C(c1ccc(Cl)cc1)=N[C@@H](CC(=O)OC(C)(C)C)c1nnc(C)n1-2 [NCGC00250412-19]	48.6
COc1cc2c(cc1OC)C1CC(=O)C(CC(C)C)CN1CC2 (stereo not given) + Cc1sc2c(c1C)C(c1ccc(Cl)cc1)=N[C@@H](CC(=O)OC(C)(C)C)c1nnc(C)n1-2 [NCGC00250412-19]	50.8
CC(=O)O/N=C1/C(c2c(O)[nH]c3cc(Br)ccc23)=Nc2ccccc21 + Cc1sc2c(c1C)C(c1ccc(Cl)cc1)=N[C@@H](CC(=O)OC(C)(C)C)c1nnc(C)n1-2 [NCGC00250412-19]	54.4
COc1cccc2c1C(=O)c1c(O)c3c(c(O)c1C2=O)C[C@@](O)(C(=O)CO)C[C@@H]3O[C@H]1C[C@H](N)[C@@H](O)[C@H](C)O1 + Cc1sc2c(c1C)C(c1ccc(Cl)cc1)=N[C@@H](CC(=O)OC(C)(C)C)c1nnc(C)n1-2 [NCGC00250412-19]	-433
COC(=O)C[C@](O)(CCCC(C)(C)O)C(=O)O[C@@H]1C(OC)=C[C@]23CCCN2CCc2cc4c(cc2[C@H]13)OCO4 + Cc1sc2c(c1C)C(c1ccc(Cl)cc1)=N[C@@H](CC(=O)OC(C)(C)C)c1nnc(C)n1-2 [NCGC00250412-19]	-186
CC(=O)O[C@H]1C(=O)[C@@]2(C)[C@H]([C@H](OC(=O)c3ccccc3)[C@]3(O)C[C@H](OC(=O)[C@H](O)[C@@H](NC(=O)c4ccccc4)c4ccccc4)C(C)=C1C3(C)C)[C@]1(OC(C)=O)CO[C@@H]1C[C@@H]2O + Cc1sc2c(c1C)C(c1ccc(Cl)cc1)=N[C@@H](CC(=O)OC(C)(C)C)c1nnc(C)n1-2 [NCGC00250412-19]	-144

6 entries from above, bar-delimited:
Compound | excess over highest single agent
C[C@H](NCc1ccc(OCc2cccc(F)c2)cc1)C(N)=O + Cc1sc2c(c1C)C(c1ccc(Cl)cc1)=N[C@@H](CC(=O)OC(C)(C)C)c1nnc(C)n1-2 [NCGC00250412-19] | 8.99
CCn1cc(C(=O)O)c(=O)c2cc(F)c(N3CCNCC3)nc21 + Cc1sc2c(c1C)C(c1ccc(Cl)cc1)=N[C@@H](CC(=O)OC(C)(C)C)c1nnc(C)n1-2 [NCGC00250412-19] | 92.6
CC=C1C2C=C(C)CC1(N)c1ccc(=O)[nH]c1C2 (stereo not given) + Cc1sc2c(c1C)C(c1ccc(Cl)cc1)=N[C@@H](CC(=O)OC(C)(C)C)c1nnc(C)n1-2 [NCGC00250412-19] | -16.9
C=C(C)[C@@H]1CC[C@]2(C(=O)O)CC[C@]3(C)[C@H](CC[C@@H]4[C@@]5(C)CC[C@H](O)C(C)(C)[C@@H]5CC[C@]43C)[C@@H]12 + Cc1sc2c(c1C)C(c1ccc(Cl)cc1)=N[C@@H](CC(=O)OC(C)(C)C)c1nnc(C)n1-2 [NCGC00250412-19] | 56
CCCCCN(C)CCC(O)(P(=O)(O)O)P(=O)(O)O + Cc1sc2c(c1C)C(c1ccc(Cl)cc1)=N[C@@H](CC(=O)OC(C)(C)C)c1nnc(C)n1-2 [NCGC00250412-19] | -38.2
O=C(O)C1=C[C@@H](O)[C@@H](O)[C@H](O)C1 + Cc1sc2c(c1C)C(c1ccc(Cl)cc1)=N[C@@H](CC(=O)OC(C)(C)C)c1nnc(C)n1-2 [NCGC00250412-19] | 100
